Laboratory results taken from the supplement of paper PMC10849652.
Some of the results follow.

Chains of the proteins cited; added tags and fusions are not shown. Lines headed by an entry give the natural chain unless they say otherwise; changes in a name come on top.
UniProt P02794, whole entry, looked up: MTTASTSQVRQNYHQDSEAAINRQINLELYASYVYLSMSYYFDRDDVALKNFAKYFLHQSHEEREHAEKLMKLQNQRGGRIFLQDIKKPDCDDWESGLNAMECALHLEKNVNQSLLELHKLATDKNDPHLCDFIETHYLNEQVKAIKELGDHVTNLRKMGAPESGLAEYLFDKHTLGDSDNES
UniProt P85037: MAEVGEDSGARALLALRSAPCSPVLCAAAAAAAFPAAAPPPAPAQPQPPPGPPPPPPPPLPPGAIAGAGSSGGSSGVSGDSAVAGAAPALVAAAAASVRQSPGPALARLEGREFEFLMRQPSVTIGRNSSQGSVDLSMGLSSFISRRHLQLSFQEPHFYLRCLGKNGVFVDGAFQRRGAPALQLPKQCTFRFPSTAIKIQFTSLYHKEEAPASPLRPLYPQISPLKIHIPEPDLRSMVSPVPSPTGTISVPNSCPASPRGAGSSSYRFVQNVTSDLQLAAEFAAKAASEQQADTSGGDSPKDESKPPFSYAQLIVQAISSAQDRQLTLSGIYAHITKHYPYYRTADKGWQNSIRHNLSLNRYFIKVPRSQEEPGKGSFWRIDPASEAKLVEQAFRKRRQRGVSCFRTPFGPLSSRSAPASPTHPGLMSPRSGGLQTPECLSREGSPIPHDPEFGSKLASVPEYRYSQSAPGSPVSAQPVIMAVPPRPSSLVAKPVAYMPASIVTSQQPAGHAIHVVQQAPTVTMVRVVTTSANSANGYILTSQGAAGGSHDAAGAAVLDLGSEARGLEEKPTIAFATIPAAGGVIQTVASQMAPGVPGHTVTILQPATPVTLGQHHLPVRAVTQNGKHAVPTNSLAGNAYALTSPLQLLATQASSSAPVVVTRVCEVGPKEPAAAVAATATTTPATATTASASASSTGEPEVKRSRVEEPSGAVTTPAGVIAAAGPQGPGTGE
UniProt Q5JV73, whole entry, looked up: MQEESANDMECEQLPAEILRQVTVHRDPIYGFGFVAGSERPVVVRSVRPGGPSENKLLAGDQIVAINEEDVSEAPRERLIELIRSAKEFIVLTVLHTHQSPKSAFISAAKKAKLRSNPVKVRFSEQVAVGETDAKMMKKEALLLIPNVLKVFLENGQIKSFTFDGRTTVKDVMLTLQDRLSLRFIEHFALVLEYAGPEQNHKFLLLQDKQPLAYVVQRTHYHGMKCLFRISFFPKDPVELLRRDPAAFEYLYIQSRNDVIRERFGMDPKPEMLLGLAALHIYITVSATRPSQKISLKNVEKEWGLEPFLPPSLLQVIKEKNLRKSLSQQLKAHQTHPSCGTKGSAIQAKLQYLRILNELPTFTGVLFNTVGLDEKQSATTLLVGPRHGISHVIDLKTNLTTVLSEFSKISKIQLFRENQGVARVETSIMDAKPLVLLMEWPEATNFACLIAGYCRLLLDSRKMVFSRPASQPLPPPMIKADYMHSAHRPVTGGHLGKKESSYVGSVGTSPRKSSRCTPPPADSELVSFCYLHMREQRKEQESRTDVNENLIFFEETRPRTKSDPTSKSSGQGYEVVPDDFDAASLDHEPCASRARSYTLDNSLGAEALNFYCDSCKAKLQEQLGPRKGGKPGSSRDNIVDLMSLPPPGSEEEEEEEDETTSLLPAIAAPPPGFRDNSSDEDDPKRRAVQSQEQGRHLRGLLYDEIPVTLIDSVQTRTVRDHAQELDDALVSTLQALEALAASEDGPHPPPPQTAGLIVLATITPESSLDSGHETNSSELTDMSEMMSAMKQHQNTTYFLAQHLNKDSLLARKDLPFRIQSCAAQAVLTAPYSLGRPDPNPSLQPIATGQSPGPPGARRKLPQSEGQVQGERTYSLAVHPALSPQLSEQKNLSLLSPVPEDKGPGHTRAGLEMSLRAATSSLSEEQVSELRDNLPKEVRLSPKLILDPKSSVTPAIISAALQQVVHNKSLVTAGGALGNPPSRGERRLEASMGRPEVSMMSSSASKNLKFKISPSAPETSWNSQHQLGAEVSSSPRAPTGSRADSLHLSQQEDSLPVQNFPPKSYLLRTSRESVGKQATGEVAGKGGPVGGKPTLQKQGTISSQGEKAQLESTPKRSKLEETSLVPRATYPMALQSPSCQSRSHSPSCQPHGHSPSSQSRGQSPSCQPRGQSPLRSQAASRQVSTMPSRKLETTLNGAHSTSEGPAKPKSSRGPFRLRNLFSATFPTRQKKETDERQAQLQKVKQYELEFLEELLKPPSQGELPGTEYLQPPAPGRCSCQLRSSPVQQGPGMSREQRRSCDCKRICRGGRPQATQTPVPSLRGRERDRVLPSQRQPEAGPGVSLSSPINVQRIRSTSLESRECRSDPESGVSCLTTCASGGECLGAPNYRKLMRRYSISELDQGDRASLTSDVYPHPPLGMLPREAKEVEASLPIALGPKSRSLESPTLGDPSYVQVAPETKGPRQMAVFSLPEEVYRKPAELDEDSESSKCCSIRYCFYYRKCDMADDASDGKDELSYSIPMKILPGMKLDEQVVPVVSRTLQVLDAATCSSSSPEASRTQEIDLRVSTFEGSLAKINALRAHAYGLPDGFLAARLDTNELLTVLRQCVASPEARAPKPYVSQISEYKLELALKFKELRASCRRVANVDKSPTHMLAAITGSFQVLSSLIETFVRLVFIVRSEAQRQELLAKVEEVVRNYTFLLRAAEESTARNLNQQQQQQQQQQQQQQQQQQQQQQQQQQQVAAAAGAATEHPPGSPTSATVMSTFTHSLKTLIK
UniProt O75600: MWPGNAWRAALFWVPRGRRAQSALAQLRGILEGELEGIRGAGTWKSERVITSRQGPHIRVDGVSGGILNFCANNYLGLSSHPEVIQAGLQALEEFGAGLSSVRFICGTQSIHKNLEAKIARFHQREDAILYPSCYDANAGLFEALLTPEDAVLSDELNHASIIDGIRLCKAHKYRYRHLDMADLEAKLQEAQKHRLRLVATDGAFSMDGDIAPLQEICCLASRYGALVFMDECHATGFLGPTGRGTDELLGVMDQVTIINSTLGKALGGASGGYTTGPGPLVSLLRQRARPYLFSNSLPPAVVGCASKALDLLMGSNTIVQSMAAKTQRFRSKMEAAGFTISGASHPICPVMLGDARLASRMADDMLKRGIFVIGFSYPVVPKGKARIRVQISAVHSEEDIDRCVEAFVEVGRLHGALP
UniProt Q9UJ14: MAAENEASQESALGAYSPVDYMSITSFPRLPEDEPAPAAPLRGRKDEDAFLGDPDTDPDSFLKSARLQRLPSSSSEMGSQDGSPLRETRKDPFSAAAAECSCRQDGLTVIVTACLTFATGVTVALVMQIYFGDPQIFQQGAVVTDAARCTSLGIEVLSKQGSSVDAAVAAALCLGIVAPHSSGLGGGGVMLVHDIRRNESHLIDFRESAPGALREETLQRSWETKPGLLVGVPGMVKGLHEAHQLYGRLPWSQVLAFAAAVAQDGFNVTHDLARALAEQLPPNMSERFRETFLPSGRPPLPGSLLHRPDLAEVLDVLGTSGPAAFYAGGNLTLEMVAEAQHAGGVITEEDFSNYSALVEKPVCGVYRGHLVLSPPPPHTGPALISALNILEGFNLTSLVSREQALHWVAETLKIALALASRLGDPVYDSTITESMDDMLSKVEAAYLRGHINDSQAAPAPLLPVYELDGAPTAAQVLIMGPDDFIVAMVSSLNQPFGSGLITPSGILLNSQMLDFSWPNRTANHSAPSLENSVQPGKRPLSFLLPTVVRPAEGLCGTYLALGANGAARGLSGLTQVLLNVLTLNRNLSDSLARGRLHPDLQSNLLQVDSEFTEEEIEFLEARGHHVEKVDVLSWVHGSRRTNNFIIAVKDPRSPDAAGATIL
UniProt P02792: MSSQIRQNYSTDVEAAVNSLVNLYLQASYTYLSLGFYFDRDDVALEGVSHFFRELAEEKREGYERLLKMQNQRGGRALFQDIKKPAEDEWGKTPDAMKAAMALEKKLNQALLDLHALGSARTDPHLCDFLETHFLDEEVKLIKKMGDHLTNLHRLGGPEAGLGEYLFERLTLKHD
UniProt P34059: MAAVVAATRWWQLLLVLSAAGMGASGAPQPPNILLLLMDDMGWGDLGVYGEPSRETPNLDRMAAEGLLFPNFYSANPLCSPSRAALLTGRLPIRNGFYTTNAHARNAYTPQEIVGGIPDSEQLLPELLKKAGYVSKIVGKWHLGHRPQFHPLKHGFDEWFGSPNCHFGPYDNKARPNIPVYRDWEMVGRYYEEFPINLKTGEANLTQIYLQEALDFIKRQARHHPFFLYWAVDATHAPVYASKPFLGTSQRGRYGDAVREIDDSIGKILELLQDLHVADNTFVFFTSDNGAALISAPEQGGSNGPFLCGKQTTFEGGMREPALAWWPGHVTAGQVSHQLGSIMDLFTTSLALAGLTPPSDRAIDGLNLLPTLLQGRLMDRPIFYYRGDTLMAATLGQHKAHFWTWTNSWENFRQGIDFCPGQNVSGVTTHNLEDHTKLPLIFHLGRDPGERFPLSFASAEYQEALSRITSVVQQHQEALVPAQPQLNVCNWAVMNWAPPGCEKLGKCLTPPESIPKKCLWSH
UniProt P48507: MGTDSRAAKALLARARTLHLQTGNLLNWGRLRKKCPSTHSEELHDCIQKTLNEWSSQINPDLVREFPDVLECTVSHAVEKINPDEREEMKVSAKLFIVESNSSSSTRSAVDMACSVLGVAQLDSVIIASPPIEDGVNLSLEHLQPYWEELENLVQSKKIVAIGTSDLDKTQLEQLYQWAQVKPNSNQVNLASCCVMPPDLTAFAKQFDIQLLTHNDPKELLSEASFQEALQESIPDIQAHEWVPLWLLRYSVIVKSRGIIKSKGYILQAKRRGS
UniProt P31150: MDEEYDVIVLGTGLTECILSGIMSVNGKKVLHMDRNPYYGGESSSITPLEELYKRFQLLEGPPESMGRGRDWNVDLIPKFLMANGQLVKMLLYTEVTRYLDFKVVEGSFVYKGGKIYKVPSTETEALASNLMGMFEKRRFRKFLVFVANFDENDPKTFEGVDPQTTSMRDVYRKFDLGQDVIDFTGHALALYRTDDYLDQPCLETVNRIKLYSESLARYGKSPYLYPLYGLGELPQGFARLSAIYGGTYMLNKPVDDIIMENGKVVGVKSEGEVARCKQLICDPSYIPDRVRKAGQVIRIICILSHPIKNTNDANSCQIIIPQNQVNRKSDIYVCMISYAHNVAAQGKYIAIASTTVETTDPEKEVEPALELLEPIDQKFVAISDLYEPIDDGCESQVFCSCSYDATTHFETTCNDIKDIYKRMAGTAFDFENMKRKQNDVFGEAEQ
UniProt P38435: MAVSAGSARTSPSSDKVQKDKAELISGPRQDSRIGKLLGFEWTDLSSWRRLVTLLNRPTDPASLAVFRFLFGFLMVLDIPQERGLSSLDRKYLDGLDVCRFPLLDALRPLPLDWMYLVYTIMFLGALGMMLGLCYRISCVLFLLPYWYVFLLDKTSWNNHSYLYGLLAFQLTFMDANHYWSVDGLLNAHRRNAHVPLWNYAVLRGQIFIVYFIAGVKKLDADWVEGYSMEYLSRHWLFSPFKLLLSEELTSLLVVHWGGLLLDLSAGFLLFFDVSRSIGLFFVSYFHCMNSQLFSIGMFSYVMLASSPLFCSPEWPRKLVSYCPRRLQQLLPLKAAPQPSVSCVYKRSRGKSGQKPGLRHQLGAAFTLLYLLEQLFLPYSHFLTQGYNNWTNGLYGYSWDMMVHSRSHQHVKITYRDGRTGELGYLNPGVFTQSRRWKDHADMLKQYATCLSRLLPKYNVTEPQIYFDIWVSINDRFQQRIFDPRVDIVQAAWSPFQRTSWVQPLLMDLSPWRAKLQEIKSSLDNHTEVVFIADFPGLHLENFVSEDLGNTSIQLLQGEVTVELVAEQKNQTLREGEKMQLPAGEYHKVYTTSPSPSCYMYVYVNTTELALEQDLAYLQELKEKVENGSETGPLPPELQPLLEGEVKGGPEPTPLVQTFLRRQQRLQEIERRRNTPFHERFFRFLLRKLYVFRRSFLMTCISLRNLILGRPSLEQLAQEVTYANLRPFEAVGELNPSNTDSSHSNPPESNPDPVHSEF
UniProt Q9C0B1, whole entry, looked up: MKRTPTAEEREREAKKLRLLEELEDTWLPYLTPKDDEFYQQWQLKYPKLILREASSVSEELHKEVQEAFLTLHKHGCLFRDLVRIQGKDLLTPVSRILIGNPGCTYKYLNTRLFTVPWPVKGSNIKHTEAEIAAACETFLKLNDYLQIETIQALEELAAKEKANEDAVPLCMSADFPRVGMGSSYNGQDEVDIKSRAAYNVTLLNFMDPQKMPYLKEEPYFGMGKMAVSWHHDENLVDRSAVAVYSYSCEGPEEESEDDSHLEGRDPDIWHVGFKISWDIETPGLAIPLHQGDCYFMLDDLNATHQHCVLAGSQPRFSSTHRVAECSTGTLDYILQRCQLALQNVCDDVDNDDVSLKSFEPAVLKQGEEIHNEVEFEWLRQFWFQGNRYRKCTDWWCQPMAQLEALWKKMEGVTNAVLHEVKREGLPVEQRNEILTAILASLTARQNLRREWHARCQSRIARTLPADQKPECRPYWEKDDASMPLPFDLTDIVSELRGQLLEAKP
UniProt Q13069: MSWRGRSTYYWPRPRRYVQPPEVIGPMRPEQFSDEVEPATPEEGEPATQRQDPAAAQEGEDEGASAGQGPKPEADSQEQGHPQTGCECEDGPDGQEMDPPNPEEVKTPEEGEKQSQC

Experiments:
Test in all cases: log2 fold change, soluble protein after heating vs DMSO (PISA); higher = thermal stabilisation; K562 cells, 10 uM, 30 min; active = over 0.2 and 3.5 SD of the protein, either way, in both replicates (recomputed)
[1] = compound: C1=CC=C(C=C1)[C@H](COC2=CC3=C(C=C2)NC(=O)N3)NC(=O)C4=CC=CN(C4=O)CC5=CC(=C(C=C5)F)F
In short: (§1)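 K562 cells (2×10^6 cells/mL) were treated with 10 μM compound for 30 min, and aliquots were heated for 3 min over 48°C-58°C. Pooled aliquots were extracted in PBS with 0.5% NP-40 at 4°C, and the supernatant after 21,000xg for 90 min was measured by TMTpro 16plex LC-MS/MS with channel sums equalised. Reported thermal stability, relative to control samples and from duplicates, is a log2 fold change.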

[2] = compound: CC1=C(SC2=C1C(=N[C@H](C3=NN=C(N32)C)CC(=O)N)C4=CC=C(C=C4)Cl)C
In short: as §1

[3] = compound: CC1=C2C(=CC=C1)N=C(N(C2=O)C3=CC=CC=C3C)CN4C=NC5=C(N=CN=C54)N
In short: as §1

[4] = compound: Cc1sc2c(c1C)C(c1ccc(Cl)cc1)=N[C@@H](CC(=O)OC(C)(C)C)c1nnc(C)n1-2
In short: as §1

[5] = compound: c1ccc([C@@H]2C[C@H]2NC2CCNCC2)cc1
In short: as §1

Measured: log2 fold change

FTH1 (UniProt P02794)
inactive: [1] -0.007 | [2] 0.027 | [3] -0.158 | [4] 0.05 | [5] -0.037

GAGE12F (UniProt P0CL80)
inactive: [1] -0.016 | [2] 0.137 | [3] 0.109 | [4] -0.089 | [5] 0.012

GALNT5 (UniProt Q7Z7M9)
inactive: [1] 0.022 | [2] 0.034 | [3] 0.074 | [4] 0.025 | [5] -0.044

FOXK1 (UniProt P85037)
inactive: [1] 0.104 | [2] -0.042 | [3] 0.253 | [4] -0.402 | [5] 0.049

GAMT (UniProt Q14353)
inactive: [1] -0.03 | [2] 0.065 | [3] 0.037 | [4] -0.127 | [5] -0.071

FRMPD3 (UniProt Q5JV73)
inactive: [1] 0.081 | [2] -0.04 | [3] 0.356 | [4] 0.078 | [5] 0.053

G3BP1 (UniProt Q13283)
inactive: [1] 0.074 | [2] -0.101 | [3] -0.125 | [4] 0.193 | [5] 0

GDI2 (UniProt Q5SX86)
inactive: [1] -0.082

GDPD1 (UniProt Q8N9F7)
inactive: [1] -0.054 | [2] 0.003 | [3] 0.057 | [4] -0.024 | [5] 0.034

GAN (UniProt Q9H2C0)
inactive: [1] -0.052 | [2] 0.1 | [3] 0.04 | [4] 0.001 | [5] 0.008

GARS1 (UniProt P41250)
inactive: [1] 0.022 | [2] 0.019 | [3] -0.005 | [4] -0.008 | [5] 0.017

GANAB isoform 2 (UniProt Q14697)
inactive: [1] 0.032 | [2] 0.004 | [3] -0.011 | [4] -0.013 | [5] -0.009

GART (UniProt C9JZG2)
inactive: [1] -0.219 | [2] 0.03 | [3] 0.255 | [4] 0.127 | [5] 0.056

GFM2 (UniProt Q969S9)
inactive: [1] 0.068

GCAT isoform 2 (UniProt O75600)
inactive: [1] 0.028 | [2] 0.169 | [3] 0.056 | [4] 0.018 | [5] -0.187

GGT7 (UniProt Q9UJ14)
inactive: [1] 0.028 | [2] -0.055 | [3] -0.069 | [4] 0.026 | [5] 0.032

GCN1 (UniProt Q92616)
inactive: [1] 0.017 | [2] -0.282 | [3] -0.021 | [4] 0.219 | [5] -0.002

FTL (UniProt P02792)
inactive: [1] -0.036 | [2] -0.068 | [3] -0.098 | [4] 0.172 | [5] 0.032

GEMIN4 (UniProt P57678)
inactive: [1] 0.222 | [2] -0.379 | [3] -0.403 | [4] 0.174 | [5] -0.003

GALK1 isoform 2 (UniProt P51570)
inactive: [1] -0.02 | [2] 0.016 | [3] -0.065 | [4] -0.024 | [5] -0.007

FUNDC1 (UniProt Q8IVP5)
inactive: [1] 0.052

GET4 (UniProt Q7L5D6)
inactive: [1] 0.008 | [2] 0.003 | [3] 0.054 | [4] 0.014 | [5] -0.068

FRYL (UniProt O94915)
inactive: [1] -0.007 | [2] 0.03 | [3] 0.019 | [4] -0.016 | [5] 0.021

GCFC2 (UniProt P16383)
inactive: [1] -0.003 | [2] -0.077 | [3] 0 | [4] -0.027 | [5] 0.041

GART (UniProt P22102)
inactive: [1] -0.017 | [2] 0.053 | [3] 0.114 | [4] -0.043 | [5] -0.039

GADD45GIP1 (UniProt Q8TAE8)
inactive: [1] 0.03 | [2] -0.085 | [3] -0.091 | [4] 0.036 | [5] 0

GALNS (UniProt P34059)
inactive: [1] -0.009 | [2] 0.018 | [3] 0.009 | [4] -0.049 | [5] -0.064

GCLM (UniProt P48507)
inactive: [1] -0.014 | [2] 0.062 | [3] 0.108 | [4] 0 | [5] -0.053

GALNT12 (UniProt Q8IXK2)
inactive: [1] -0.062 | [2] 0.08 | [3] -0.021 | [4] 0.021 | [5] -0.047

GAPDH (UniProt P04406)
inactive: [1] 0.031 | [2] 0.02 | [3] -0.036 | [4] -0.009 | [5] -0.011

GDPD5 (UniProt Q8WTR4)
inactive: [1] -0.052

GDI1 (UniProt P31150)
inactive: [1] -0.025 | [2] 0.054 | [3] 0.043 | [4] -0.022 | [5] -0.025

GGCX (UniProt P38435)
inactive: [1] 0.107 | [2] -0.093 | [3] -0.004 | [4] -0.164 | [5] -0.018

FUNDC2 (UniProt Q9BWH2)
inactive: [1] 0.019 | [2] 0.015 | [3] -0.034 | [4] 0.026 | [5] 0.023

GALC (UniProt P54803)
inactive: [1] 0.046 | [2] 0.055 | [3] 0.055 | [4] -0.043 | [5] 0.006

GATD1 (UniProt Q8NB37)
inactive: [1] -0.038 | [2] 0.043 | [3] 0.019 | [4] 0.019 | [5] 0.007

GALT (UniProt P07902)
inactive: [1] -0.056 | [2] 0.011 | [3] -0.001 | [4] -0.224 | [5] 0.161

GID4 (UniProt Q8IVV7)
inactive: [1] -0.012 | [2] -0.021 | [3] 0.138 | [4] 0.048 | [5] 0.009

GGCT (UniProt O75223)
inactive: [1] -0.046 | [2] 0.027 | [3] 0.021 | [4] -0.01 | [5] -0.026

GALNT4 (UniProt Q8N4A0)
inactive: [1] 0.007 | [2] 0.062 | [3] 0.109 | [4] -0.033 | [5] -0.002

FUBP1 (UniProt Q96AE4)
inactive: [1] -0.039 | [2] -0.065 | [3] -0.179 | [4] -0.026 | [5] 0.032

GCLC (UniProt P48506)
inactive: [1] -0.041 | [2] 0.038 | [3] 0.072 | [4] -0.053 | [5] -0.009

FSCN1 (UniProt Q16658)
inactive: [1] -0.045 | [2] 0.043 | [3] -0.019 | [4] -0.019 | [5] -0.015

GALNT1 (UniProt Q10472)
inactive: [1] -0.034 | [2] 0.069 | [3] -0.002 | [4] -0.01 | [5] -0.007

FUS (UniProt P35637)
inactive: [1] 0.047 | [2] -0.098 | [3] -0.205 | [4] 0.11 | [5] 0.096

GBA (UniProt P04062)
inactive: [1] 0.014 | [2] -0.035 | [3] -0.007 | [4] -0.059 | [5] 0.004

Two consecutive records from above, quoted:
GCLC (UniProt P48506)
inactive: [1] -0.041 | [2] 0.038 | [3] 0.072 | [4] -0.053 | [5] -0.009

FSCN1 (UniProt Q16658)
inactive: [1] -0.045 | [2] 0.043 | [3] -0.019 | [4] -0.019 | [5] -0.015

Additional entries:

GEMIN5 (UniProt Q8TEQ6)
inactive: [1] -0.004 | [2] -0.019 | [3] 0.022 | [4] 0.021 | [5] 0.005

FUBP3 (UniProt Q96I24)
inactive: [1] 0.009 | [2] 0.002 | [3] 0.017 | [4] 0.065 | [5] 0.006

GDE1 (UniProt Q9NZC3)
inactive: [1] -0.019 | [2] 0.037 | [3] 0.025 | [4] -0.078 | [5] -0.055

GALNT7 (UniProt Q86SF2)
inactive: [1] 0.006 | [2] 0.052 | [3] 0.005 | [4] -0.01 | [5] -0.038

FXN (UniProt Q16595)
inactive: [1] 0.004 | [2] 0.058 | [3] 0.134 | [4] -0.128 | [5] -0.022

FTO (UniProt Q9C0B1)
inactive: [1] 0.023 | [2] 0.047 | [3] 0.011 | [4] -0.007 | [5] 0.043

GABPA (UniProt Q06546)
inactive: [1] -0.001 | [2] 0.005 | [3] 0.149 | [4] -0.01 | [5] -0.041

G6PD isoform 2 (UniProt P11413)
inactive: [1] -0.05 | [2] 0.045 | [3] 0.019 | [4] -0.024 | [5] -0.065

GBF1 (UniProt Q92538)
inactive: [1] -0.078 | [2] 0.036 | [3] 0.072 | [4] -0.005 | [5] 0.003

GAGE5 (UniProt Q13069)
inactive: [1] 0.029 | [2] 0.05 | [3] -0.022 | [4] -0.041 | [5] 0.008
